Measurements as given in article doi:10.1101/2025.07.23.666473.
These are yes or no findings as the source states them, for the method shown. Binding seen in cells or lysates may run through a third protein. Some entries that bind do so weakly or less than the wild type.

Protein sequences, listed by entry. Tags and fused reporters are not part of them.
UniProt P23242: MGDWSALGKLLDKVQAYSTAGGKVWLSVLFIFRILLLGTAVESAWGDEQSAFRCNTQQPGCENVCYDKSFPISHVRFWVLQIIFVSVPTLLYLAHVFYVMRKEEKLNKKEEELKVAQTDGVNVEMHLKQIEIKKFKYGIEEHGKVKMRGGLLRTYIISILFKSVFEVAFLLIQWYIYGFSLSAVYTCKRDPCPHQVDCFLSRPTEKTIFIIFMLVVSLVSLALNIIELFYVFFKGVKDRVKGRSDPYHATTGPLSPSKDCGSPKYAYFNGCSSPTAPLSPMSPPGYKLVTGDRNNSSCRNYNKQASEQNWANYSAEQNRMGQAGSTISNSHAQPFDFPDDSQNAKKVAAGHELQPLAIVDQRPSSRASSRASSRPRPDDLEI

Target: NaV1.5 (mouse (endogenous in heart)) (UniProt Q9JJV9)
Assay: co-IP

Connexin 43 (from UniProt P23242 1-382)
binding: binds
